Binding data for 1 substance are collected here from article PMC3017090.

Chains of the proteins cited; added tags and fusions are not shown.
UniProt P25490: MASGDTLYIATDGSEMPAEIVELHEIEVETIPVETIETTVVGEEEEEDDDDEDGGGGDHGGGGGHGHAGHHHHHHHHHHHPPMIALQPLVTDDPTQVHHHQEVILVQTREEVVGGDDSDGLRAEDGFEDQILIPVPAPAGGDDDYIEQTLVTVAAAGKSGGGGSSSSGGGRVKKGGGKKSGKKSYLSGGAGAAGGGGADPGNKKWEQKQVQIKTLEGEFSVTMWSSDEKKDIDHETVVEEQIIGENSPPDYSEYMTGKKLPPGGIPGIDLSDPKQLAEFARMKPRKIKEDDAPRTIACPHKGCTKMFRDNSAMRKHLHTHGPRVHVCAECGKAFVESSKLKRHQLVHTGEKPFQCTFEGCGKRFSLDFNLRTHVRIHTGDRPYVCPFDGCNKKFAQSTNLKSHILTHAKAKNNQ
UniProt P53350: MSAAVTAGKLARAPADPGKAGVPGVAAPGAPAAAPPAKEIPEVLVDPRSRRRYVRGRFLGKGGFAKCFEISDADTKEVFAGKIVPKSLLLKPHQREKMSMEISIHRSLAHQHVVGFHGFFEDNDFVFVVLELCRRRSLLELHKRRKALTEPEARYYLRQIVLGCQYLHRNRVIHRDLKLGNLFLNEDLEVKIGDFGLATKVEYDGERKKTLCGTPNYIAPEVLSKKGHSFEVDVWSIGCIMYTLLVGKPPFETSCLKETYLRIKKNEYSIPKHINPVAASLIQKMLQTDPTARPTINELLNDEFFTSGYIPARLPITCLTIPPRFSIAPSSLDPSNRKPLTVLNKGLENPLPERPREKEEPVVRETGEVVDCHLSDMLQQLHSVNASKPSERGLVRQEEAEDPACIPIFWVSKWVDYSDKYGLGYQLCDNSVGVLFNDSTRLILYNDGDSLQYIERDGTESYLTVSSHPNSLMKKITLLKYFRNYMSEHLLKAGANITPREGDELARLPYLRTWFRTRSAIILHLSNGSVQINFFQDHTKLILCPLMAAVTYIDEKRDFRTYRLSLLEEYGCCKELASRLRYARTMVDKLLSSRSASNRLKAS

This test concerns the target Yin-Yang 1 (human (endogenous in HeLa)) (UniProt P25490). In words: co-IP; endogenous YY1 immunoprecipitated with anti-YY1 (C-20) from whole cell extracts of HeLa cells released 8 h after double-thymidine block (G2/M); IgG as control; blot probed with anti-Plk1, then anti-YY1.

These are yes or no findings as the source states them, for the method shown. In cells and extracts the contact can be indirect. Some binding calls cover weakened binding; strength is not graded here.

For the substance “Polo-like kinase 1 (from UniProt P53350 1-603) (enzyme)”, the binding result is recorded as “binds”.
